Patent US20170319690A1 (AGENCY FOR SCIENCE TECHNOLOGY AND RESEARCH, published 2017)
These are yes or no findings as the source states them, for the method shown. Some entries that bind do so weakly or less than the wild type.

By UniProt entry, the sequences of proteins in these tests, tags left out. Where a name states a change or a piece, a line headed by the entry shows the natural chain unless it says otherwise. Residues count along the entry.
UniProt Q9NZQ7: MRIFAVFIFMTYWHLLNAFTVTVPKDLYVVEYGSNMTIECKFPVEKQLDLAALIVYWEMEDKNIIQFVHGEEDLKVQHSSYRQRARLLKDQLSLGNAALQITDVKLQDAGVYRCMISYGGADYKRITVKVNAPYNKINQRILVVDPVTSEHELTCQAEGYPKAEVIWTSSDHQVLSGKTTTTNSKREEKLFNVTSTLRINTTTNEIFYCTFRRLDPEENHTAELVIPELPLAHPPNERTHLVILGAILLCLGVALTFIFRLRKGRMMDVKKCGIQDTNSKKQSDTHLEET
human PD-L1 (ELISA antigen, construct not stated): residues 19-239 of Q9NZQ7
UniProt Q9EP73: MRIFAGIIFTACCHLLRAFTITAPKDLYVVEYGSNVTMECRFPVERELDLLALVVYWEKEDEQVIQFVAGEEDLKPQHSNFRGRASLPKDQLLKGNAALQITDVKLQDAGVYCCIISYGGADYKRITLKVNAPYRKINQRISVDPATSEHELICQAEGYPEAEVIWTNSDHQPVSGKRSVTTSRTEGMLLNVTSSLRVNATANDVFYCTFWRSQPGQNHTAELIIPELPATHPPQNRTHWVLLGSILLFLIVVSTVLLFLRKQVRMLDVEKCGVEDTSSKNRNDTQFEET

Assays:
[1] = target: PD-L1 (blocking ELISA of Example 13) (Homo sapiens (Human)) (UniProt Q9NZQ7); test: blocking ELISA; antibody pre-incubated with PD-L1, added to plate-coated PD-1 (the blocked partner); PD-1-bound PD-L1 detected with an antibody
[2] = target: biotinylated murine PD-L1 (murine) (UniProt Q9EP73); test: blocking ELISA; biotinylated murine PD-L1 pre-incubated with the Fab, then added to plate-coated murine PD-1-Fc (the blocked partner); streptavidin-HRP/TMB
[3] = target: murine PD-L1 coupled to human Fc (murine; human) (UniProt Q9EP73); test: ELISA, PD-L1-Fc coated, Fab detected with anti-human Fab-HRP
[4] = target: human PD-L1 coupled to human Fc (human) (UniProt Q9NZQ7); test: as above
[5] = target: murine PD-L1 coupled to human Fc (murine; human) (UniProt Q9EP73); test: ELISA, PD-L1-Fc coated
[6] = target: human PD-L1 coupled to human Fc (human) (UniProt Q9NZQ7); test: ELISA, PD-L1-Fc coated
[7] = target: human PD-L1 (ELISA antigen, construct not stated) (human) (UniProt Q9NZQ7); test: screening ELISA of Fabs
biotinylated human PD-L1 [8] = target: T1, biotinylated human PD-L1 (human, UniProt Q9NZQ7 19-239, limits assumed, biotinylated); test: blocking ELISA; biotinylated human PD-L1 pre-incubated with the Fab, then added to plate-coated human PD-1-Fc (the blocked partner); streptavidin-HRP/TMB
T1 construct: construct not described

[9] = target: murine PD-L1 coupled to human Fc (murine; human) (UniProt Q9EP73); test: ELISA; plate coated with mouse PD-L1-Fc, Fab added (concentration not given), goat anti-human Fab-HRP/TMB, absorbance 450-670 nm
[10] = target: human PD-L1 coupled to human Fc (human) (UniProt Q9NZQ7); test: ELISA; plate coated with human PD-L1-Fc, Fab added (concentration not given), goat anti-human Fab-HRP/TMB, absorbance 450-670 nm
[11] = target: T2, human PD-L1 expressed on cells (human, UniProt Q9NZQ7 19-290); test: flow cytometry blocking assay; antibody mixed with human PD-1-PE (the blocked partner) and added to HEK293 cells transfected with human PD-L1
T2 construct: whole, on cells; also called PD-L1 transfected HEK 293 cells; HEK293-6E cells transfected with human PD-L1
Excerpt: Cells were washed 3 times with PBS and all data were collected on a BD FACSCanto II (BD Bioscience) and analysed on BD FACSDiva software (BD Bioscience).

[12] = target: T2, human PD-L1 expressed on cells; test: flow cytometry on MDA-MB-231 cells
[13] = target: T2, human PD-L1 expressed on cells; test: flow cytometry on MDA-MB-231 human breast cancer cells constitutively expressing PD-L1; MFI
[14] = target: biotinylated murine PD-L1 (murine) (UniProt Q9EP73); test: blocking ELISA; murine PD-L1 binding to murine PD-1 (the blocked partner) in the presence of the IgG
biotinylated human PD-L1 [15] = target: T1, biotinylated human PD-L1; test: ELISA; antibody coated on the plate at 2 ug/mL, biotinylated human PD-L1 titrated (x axis: Human PD-L1, nM), streptavidin-HRP/TMB
Method: Binding was measured by ELISA. Antibodies were coated onto maxisorp plates at 2 μg/mL in coating buffer and incubated overnight at 4° C. The next day, plates were washed with wash buffer (PBS+0.05% Tween-20), and blocker with casein for 1 hour, at room temperature. Plates were then washed again using wash buffer. […] Plates were then washed again using wash buffer. […] Plates were then washed again using wash buffer. Finally, TMB was added to develop the ELISA; TMB conversion by HRP was stopped using 1M H—Cl.

biotinylated human PD-L1 [16] = target: T1, biotinylated human PD-L1; test: avidity ELISA; biotinylated human PD-L1 (0.2 ug/mL) captured on a neutravidin plate, IgG titrated, anti-human Fc-HRP/TMB
Method: Neutravidin was coated onto maxisorp plates at 2 μg/mL in coating buffer and incubated overnight at 4° C. The next day, plates were washed with wash buffer (PBS+0.05% Tween-20), and blocker with casein for 1 hour, at room temperature. Plates were then washed again using wash buffer. […] Plates were then washed again using wash buffer. The different antibodies were then added at various concentrations, and incubated for 1 hour at room temperature. Plates were then washed again using wash buffer. Anti-human Fc-HRP was then added and incubated for 1 hour at room temperature. Plates were then washed again using wash buffer. Finally, TMB was added to develop the ELISA; TMB conversion by HRP was stopped using 1M H—Cl.

biotinylated human PD-L1 [17] = target: T1, biotinylated human PD-L1; test: ELISA, antibody coated, biotinylated human PD-L1 titrated, streptavidin-HRP
[18] = target: mouse PD-L1 (ELISA antigen, construct not stated) (mouse) (UniProt Q9EP73); test: ELISA on plate-bound antigen (sheet legend: moPD-L1-Fc); antibody concentration not given
biotinylated human PD-L1 [19] = target: T1, biotinylated human PD-L1; test: avidity ELISA, biotinylated human PD-L1 on neutravidin, antibody titrated, anti-human Fc-HRP
[20] = target: mouse PD-L1 (ELISA antigen, construct not stated) (mouse) (UniProt Q9EP73); test: back-reference to the earlier binding experiments
[21] = target: human PD-L1 (ELISA antigen, construct not stated) (human) (UniProt Q9NZQ7); test: ELISA on plate-bound antigen (sheet legend: huPD-L1-Fc); antibody concentration not given
[22] = target: cynomolgus PD-L1 (ELISA antigen, construct not stated) (cynomolgus) (UniProt G7PSE7); test: ELISA on plate-bound antigen (sheet legend: cyPD-L1-Fc); antibody concentration not given
[23] = target: mouse PD-L1 (ELISA antigen, construct not stated) (mouse) (UniProt Q9EP73); test: ELISA on different antigens
[24] = target: human PD-L1 (ELISA antigen, construct not stated) (human) (UniProt Q9NZQ7); test: ELISA on different antigens
[25] = target: cynomolgus PD-L1 (ELISA antigen, construct not stated) (cynomolgus) (UniProt G7PSE7); test: ELISA on different antigens

Measured: binding

B1: anti-PD-L1 antibody C4 (format not stated in the example) (antibody, V domains shown)
VH: QVQLQQSGAEVKKPGSSVKVSCKASGGTFSSYAISWVRQAPGQGLEWMGRIIPILGIANYAQKFQGRVTITADKSTSTAYMELSSLRSEDTAVYYCARGGYGGNSLYAFDIWGQGTMVTVSS
VL: QSVVTQPPSVSAAPGQKVTISCSGSSSNIGNNYVSWYQQLPGTAPKLLIYDNNERLSGIPDRFSGSKSGTSATLGISGLQTGDEADYYCGTWDSSLSVVVFGGGTKLTVL
notes: detected with anti-human Fc-HRP in the avidity ELISA, so it carried an Fc there
binds: [1]

B2: anti-PD-L1 antibody clone H12, Fab format (Fab, V domains shown)
VH: EVQLVQSGAEVKKPGASVKVSCKASGGTFSSYAISWVRQAPGQGLEWMGRIIPILGIANYAQKFQGRVTITADKSTSTAYMELSSLRSEDTAVYYCARSGHGYSYGAFDYWGQGTL
VL: QSVLTQPPSVSGAPGQRVTISCTGSSSNIGAGYDVHWYQQLPGTAPKLLIYGNSNRPSGVPDRFSGSKSGTSASLAITGLQAEDEADYYCQSYDSSLSGSYVVFGGGTKLTVL
binds: [2] | [3] | [4] | [5] | [6] | [7] | biotinylated human PD-L1 [8] | [9] | [10]

B3: anti-PD-L1 antibody H12, IgG4 format (antibody, V domains shown)
VH: EVQLVQSGAEVKKPGASVKVSCKASGGTFSSYAISWVRQAPGQGLEWMGRIIPILGIANYAQKFQGRVTITADKSTSTAYMELSSLRSEDTAVYYCARSGHGYSYGAFDYWGQGTL
VL: QSVLTQPPSVSGAPGQRVTISCTGSSSNIGAGYDVHWYQQLPGTAPKLLIYGNSNRPSGVPDRFSGSKSGTSASLAITGLQAEDEADYYCQSYDSSLSGSYVVFGGGTKLTVL
notes: IgG4
binds: [11]

B4: anti-PD-L1 antibody H12, IgG1 format (antibody, V domains shown)
VH: EVQLVQSGAEVKKPGASVKVSCKASGGTFSSYAISWVRQAPGQGLEWMGRIIPILGIANYAQKFQGRVTITADKSTSTAYMELSSLRSEDTAVYYCARSGHGYSYGAFDYWGQGTL
VL: QSVLTQPPSVSGAPGQRVTISCTGSSSNIGAGYDVHWYQQLPGTAPKLLIYGNSNRPSGVPDRFSGSKSGTSASLAITGLQAEDEADYYCQSYDSSLSGSYVVFGGGTKLTVL
notes: IgG1
binds: [12] | [13] | [11] | [14]

B5: anti-PD-L1 antibody H12 (format not stated in the example) (antibody, V domains shown)
VH: EVQLVQSGAEVKKPGASVKVSCKASGGTFSSYAISWVRQAPGQGLEWMGRIIPILGIANYAQKFQGRVTITADKSTSTAYMELSSLRSEDTAVYYCARSGHGYSYGAFDYWGQGTL
VL: QSVLTQPPSVSGAPGQRVTISCTGSSSNIGAGYDVHWYQQLPGTAPKLLIYGNSNRPSGVPDRFSGSKSGTSASLAITGLQAEDEADYYCQSYDSSLSGSYVVFGGGTKLTVL
binds: [1] | biotinylated human PD-L1 [15] | biotinylated human PD-L1 [16] | biotinylated human PD-L1 [17] | [18] | biotinylated human PD-L1 [19] | [20] | [21] | [22] | [23] | [24] | [25]
